Results from article PMC11199710.
No constants are given. Whether binding was seen depends on the method and setting.

By UniProt entry, the sequences of proteins in these tests, tags left out.
UniProt P18065: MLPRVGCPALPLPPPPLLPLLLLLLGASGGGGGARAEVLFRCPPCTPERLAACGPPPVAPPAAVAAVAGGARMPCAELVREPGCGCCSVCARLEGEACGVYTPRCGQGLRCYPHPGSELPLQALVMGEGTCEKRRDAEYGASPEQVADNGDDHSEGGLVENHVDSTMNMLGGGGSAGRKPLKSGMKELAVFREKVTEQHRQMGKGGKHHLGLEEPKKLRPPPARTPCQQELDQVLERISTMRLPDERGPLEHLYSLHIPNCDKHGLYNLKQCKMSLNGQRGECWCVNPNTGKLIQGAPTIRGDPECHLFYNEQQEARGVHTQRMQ
UniProt P08648: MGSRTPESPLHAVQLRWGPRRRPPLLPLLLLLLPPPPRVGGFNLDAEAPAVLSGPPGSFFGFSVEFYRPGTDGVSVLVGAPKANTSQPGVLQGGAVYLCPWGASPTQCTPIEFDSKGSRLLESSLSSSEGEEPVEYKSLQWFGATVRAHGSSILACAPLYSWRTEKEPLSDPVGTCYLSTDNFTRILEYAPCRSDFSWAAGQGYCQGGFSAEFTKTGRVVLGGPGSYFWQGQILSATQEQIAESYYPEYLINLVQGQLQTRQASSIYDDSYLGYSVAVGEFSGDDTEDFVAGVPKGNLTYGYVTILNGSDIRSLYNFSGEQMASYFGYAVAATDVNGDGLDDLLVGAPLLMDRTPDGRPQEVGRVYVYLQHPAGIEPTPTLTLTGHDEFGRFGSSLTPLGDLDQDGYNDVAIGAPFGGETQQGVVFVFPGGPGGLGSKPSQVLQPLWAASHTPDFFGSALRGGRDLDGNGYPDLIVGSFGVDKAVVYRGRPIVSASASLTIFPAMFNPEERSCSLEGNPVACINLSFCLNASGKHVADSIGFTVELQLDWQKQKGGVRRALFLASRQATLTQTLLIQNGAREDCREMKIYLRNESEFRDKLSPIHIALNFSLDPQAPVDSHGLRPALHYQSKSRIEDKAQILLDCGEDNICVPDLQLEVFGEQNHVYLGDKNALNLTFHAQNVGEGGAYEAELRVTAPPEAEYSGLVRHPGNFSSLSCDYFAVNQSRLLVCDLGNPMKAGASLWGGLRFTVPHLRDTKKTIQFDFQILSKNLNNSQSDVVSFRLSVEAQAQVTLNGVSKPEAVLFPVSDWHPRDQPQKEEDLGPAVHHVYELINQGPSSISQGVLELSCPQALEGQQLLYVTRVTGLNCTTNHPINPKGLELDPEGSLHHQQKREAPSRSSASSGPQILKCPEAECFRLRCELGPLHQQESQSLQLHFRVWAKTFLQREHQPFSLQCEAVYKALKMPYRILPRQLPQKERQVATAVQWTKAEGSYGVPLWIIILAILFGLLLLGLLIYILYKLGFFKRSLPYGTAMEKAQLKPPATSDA

Target: Insulin-like growth factor binding protein 2 (pAS-2-IGFBP2 construct) (UniProt P18065)
Assay: two-hybrid; pAS-2-IGFBP2 transformed into S. cerevisiae AH109, then pAS-2-ITGA5; cultured in selective media for 5~7 days

Integrin-α5 (pAS-2-ITGA5 construct) (from UniProt P08648 1-1049)
binding: no binding
